Screen size: about 52,000 sequences; about 210 (0.4%) were called active.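 Rule for the calls: active = gene whose silencing raises cell survival under the drug, median off-target-corrected z-score across its silencing RNAs 2 or more; inactive = the rest.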 The list shows a part of the results.

This test in a line: Resistance to Poly (ADP-Ribose) Polymerase inhibitor: Gene Identification via Genome-wide siRNA Screen. The settings on record: mouse BRCA2 R2336H ES cells, olaparib, CellTiter-Glo viability; hits give high values. Put shortly: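 Mouse BRCA2 R2336H ES cells were reverse-transfected with siRNA (20 nM final), treated at 48 h with 500 nM olaparib, and read by CellTiter-Glo after 72 h. Scores: MAD-based z per siRNA, median per gene, seed off-target correction.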
For orientation: In ATP-based viability assays light output follows the ATP content of the culture.
For “CGGCGUGCACUCUGGAUAATT against 5730419I09Rik”, the z-score is inactive: -1.18.

As to GCUCCUGUAGACAGGUUAGTT against Serac1, the z-score is inactive: -1.62.

GGCUGUCAUCUACGUUCUUTT against BC022224: the z-score is inactive: 0.392.

Regarding GCUGCUUUUUCAUUGUCACTT against Hcrtr1, the z-score is inactive: 0.115.

For the sequence GCUAUUGGUGUAUUUCAAUTT against Srd5a2l2, the z-score was inactive: -1.08.

Consider GGAGCUGAGCAACAUCACATT against Il13, for which the z-score is inactive: -0.92.

With GCCCAGCAAAACGAAAUACTT against Foxc2, the z-score was inactive: -0.813.

Consider CGGAGCUGUCUGAUUGUCGTT against R75581, for which the z-score was inactive: -0.234.

As for CCCUAUUUGACAAAUUCCUTT against Cdo1, the z-score is inactive: -0.0474.

Take GCUUGCUAAGAUUGAGUAUTT against Cerkl: the z-score was inactive: -1.97.

As for GGUAAGUUGUGUUUACUUATT against Fts, the z-score is inactive: 0.731.

GGCCUUUCAAGGAACCAAGTT against Psme3: the z-score is inactive: -1.33.

As to GCAAGACUUGUCAUGACACTT against Lnp, the z-score was inactive: -0.627.

Consider GAAAAUGGUCACUACUGAGTT against S100a8, for which the z-score is inactive: 1.02.

As to “GAAGACUCGGAAGAAAAUGTT against 1110020C13Rik”, the z-score was inactive: -2.22.

For the sequence GCCAUAAACCGAGGAAAAATT against BC048651, the z-score is inactive: -0.515.

Consider GGAGCCUCCAUAGAAACCATT against Klk9, for which the z-score was inactive: -2.59.

On to GGAGCUCUUGGAUAUAAAATT against Eif4enif1, for which the z-score was inactive: 0.571.

For the sequence GGGCAACUGUACGUACCAUTT against C1qr1, the z-score was inactive: -0.668.

CCGAAUGUUUUCCCACCUGTT against Lgi2: the z-score is inactive: -0.922.

Take “GCCGAGCAGUUACUUGAGATT against 3000004C01Rik”: the z-score is inactive: 0.396.

For GGAUUUGUCAAACAACACATT against Ostm1, the z-score is inactive: -0.271.

As for “GGAACUGAUAACCAGCCAGTT against 1700029B21Rik”, the z-score is inactive: -0.44.

As to CGAUAAGGAUUACAGUGAGTT against Epb4.1l1, the z-score was inactive: -1.29.

Turning to “GCAAGAGACCAUGAGAAAUTT against 4932411G06Rik”, the z-score was inactive: -0.915.

Take “GGAAAAAGCUGAGGUACCATT against B230205M03”: the z-score was inactive: -1.34.

With “CCAAAUCUGGUGUGAUUCATT against C230030N03Rik”, the z-score is inactive: 0.0576.

As to GGAGAAGGAUCUGAACGAGTT against Nog, the z-score was inactive: -1.3.

In the case of GGGUCCUACAGAAGGAACUTT against Mea1, the z-score was inactive: 1.1.

For the sequence GGACUAAUCCCAUUUUCUUTT against Zfp422, the z-score was inactive: 0.0465.

For GGUCUACCAUGACACACGUTT against Prrg2, the z-score is inactive: -1.22.

For GGAACAAAGACAUGUAUCATT against BC021513, the z-score was inactive: 0.453.

Regarding GGUUUGGUUUUCAUUGUUATT against Nhlrc2, the z-score was inactive: 0.62.

Turning to CCCAGGGUACCUCACAUCUTT against Nrp1, the z-score was inactive: -0.507.

Consider “GGCAAUUUUUCAAGGCUUATT against D130007C19Rik”, for which the z-score was inactive: -1.34.

As to CCGAUGACAAUCGGCCCUUTT against Gja8, the z-score was inactive: -0.706.

For GGUCAUAGCUGGAUUCCUUTT against Olfr1453, the z-score was inactive: 0.973.

With “GGGUUGUUUGUCUUGUUCGTT against 2610028F08Rik”, the z-score is inactive: -1.22.

With GGAGGACUAGUUGUGACUUTT against Aldh1a1, the z-score was inactive: -0.299.

Consider “GAUGAAGAAGUAGAAAUGGTT against 4933401N24Rik”, for which the z-score is inactive: 0.432.

In the case of GCUCAGAGAACCUUAUAAGTT against Cyp4f15, the z-score is inactive: -0.501.

Regarding GGAUUCUCACAAGUAAUUCTT against Ifi203, the z-score is inactive: -0.18.

As to “GGCCCUUUUAAAUAACUACTT against 1110004F10Rik”, the z-score is inactive: 1.23.

Regarding GGACCAGCUGAAGAUGGGATT against MGC47262, the z-score is inactive: 0.913.

In the case of GGAGUUGCAUCACUUGCUCTT against BC016579, the z-score was inactive: -0.0441.

GGAAAUCAUCUAUUCGGACTT against Klrc1: the z-score was inactive: 0.835.

GCAUCGUCUGUGAAAUAUGTT against Map3k7: the z-score is inactive: 0.924.

For the sequence GGAAAUGAAGCCAUGUUAATT against Arhgef6, the z-score is inactive: 1.49.

Regarding GACUGAACAGAUCUACUCUTT against Klra7, the z-score was inactive: -0.466.

Regarding “CGCAUCACCCAGUACAUCUTT against 6720425G15Rik”, the z-score is inactive: 4.04.

With GGAGAAAUACAACUGAAAATT against Pcdhb7, the z-score was inactive: -0.644.

On to “GCUACAAACCGUUUAAUAATT against D2Ertd750e”, for which the z-score was inactive: -2.04.

Consider CGGGUUUCAUUAUUAUUCCTT against Foxa1, for which the z-score is inactive: 0.42.

In the case of GGUCAUUCACGUCUGCGUUTT against Kcnj8, the z-score is inactive: -0.274.

Turning to GGUUCUGAGGACAUGUGCATT against Asb18, the z-score is inactive: -1.22.

In the case of GGAACAGCAUUGGAUGAAGTT against BC023882, the z-score is inactive: 0.228.

As to GGAUACAGUCAGACUCUUGTT against Blmh, the z-score is inactive: -1.7.

With GAUUUUCCUCUACUGUCCUTT against U90926, the z-score was inactive: 0.165.

Regarding GGAAAUAUGUUAUUUCCCATT against Cach, the z-score is inactive: 1.51.

On to GGGACUCUUCUACGAGUUUTT against Lims2, for which the z-score is inactive: 0.759.

On to GGUGAAGUACAGAAUAUGCTT against Sycp3, for which the z-score was inactive: -0.89.

For GGCCGAACCUGUCAAAGAATT against Hif3a, the z-score is inactive: -0.0527.

As to GAGACAGAUAGGCAGAAAATT against Olfr478, the z-score is inactive: -1.59.

Regarding GGACUACCUGGUACAGUCATT against Usmg1, the z-score was inactive: -1.21.

As to AUGGAUAGGGAUUAAGAGCTT against Scn4b, the z-score is inactive: 0.161.

As to GGUGCAGAAUCUCUCAUUGTT against Mrpl30, the z-score was inactive: 1.32.

These data come from PubChem BioAssay AID1347423 (Functional Genomics Laboratory (NCATS/FGL), 2020).
